Source: publication PMC7883291
Results are given in words; binding and its absence hold for the method and conditions named. Some entries that bind do so weakly or less than the wild type.

The chains behind the UniProt entries cited, without tags or fusion partners. Residues count along the entry.
UniProt P0A6F5, residues 2-548: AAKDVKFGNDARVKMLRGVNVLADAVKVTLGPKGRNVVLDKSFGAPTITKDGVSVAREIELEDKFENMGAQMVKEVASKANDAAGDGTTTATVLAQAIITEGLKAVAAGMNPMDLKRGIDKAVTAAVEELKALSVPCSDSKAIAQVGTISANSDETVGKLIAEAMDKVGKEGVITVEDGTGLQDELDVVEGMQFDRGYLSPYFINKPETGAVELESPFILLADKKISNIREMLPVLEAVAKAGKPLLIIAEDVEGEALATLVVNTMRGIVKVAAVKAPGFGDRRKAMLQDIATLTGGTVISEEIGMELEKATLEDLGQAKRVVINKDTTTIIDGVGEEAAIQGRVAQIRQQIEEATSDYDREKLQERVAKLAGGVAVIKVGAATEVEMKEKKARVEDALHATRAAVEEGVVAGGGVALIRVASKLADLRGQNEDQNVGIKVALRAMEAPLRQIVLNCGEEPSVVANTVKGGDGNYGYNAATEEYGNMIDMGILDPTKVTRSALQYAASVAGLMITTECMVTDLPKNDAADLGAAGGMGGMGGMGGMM

Molecular target: Escherichia coli GroEL chaperone (Escherichia coli) (UniProt P0A6F5)
Experiment: cross-linking; in-gel cross-linking MS (IGX-MS) of the three BN-PAGE bands GroEL, GroEL:gp23 and GroEL:(gp23)2 with 1.5 mM DSS; both purified

B1: bacteriophage T4 capsid protein (gp23) (protein, UniProt P04535 1-521)
chain: MTIKTKAELLNKWKPLLEGEGLPEIANSKQAIIAKIFENQEKDFQTAPEYKDEKIAQAFGSFLTEAEIGGDHGYNATNIAAGQTSGAVTQIGPAVMGMVRRAIPNLIAFDICGVQPMNSPTGQVFALRAVYGKDPVAAGAKEAFHPMYGPDAMFSGQGAAKKFPALAASTQTTVGDIYTHFFQETGTVYLQASVQVTIDAGATDAAKLDAEIKKQMEAGALVEIAEGMATSIAELQEGFNGSTDNPWNEMGFRIDKQVIEAKSRQLKAAYSIELAQDLRAVHGMDADAELSGILATEIMLEINREVVDWINYSAQVGKSGMTLTPGSKAGVFDFQDPIDIRGARWAGESFKALLFQIDKEAVEIARQTGRGEGNFIIASRNVVNVLASVDTGISYAAQGLATGFSTDTTKSVFAGVLGGKYRVYIDQYAKQDYFTVGYKGPNEMDAGIYYAPYVALTPLRGSDPKNFQPVMGFKTRYGIGINPFAESAAQAPASRIQSGMPSILNSLGKNAYFRRVYVKGI
binding: binds
